# In the supplement of paper PMC12067093, “Discovery and optimisation of a covalent ligand for TRIM25 and its application to targeted protein ubiquitination” (Chemical Science, 2025):
# Protein sequences, listed by entry. Tags and fused reporters are not part of them. Lines headed by an entry give the natural chain unless they say otherwise; changes in a name come on top.
# UniProt Q68CZ2: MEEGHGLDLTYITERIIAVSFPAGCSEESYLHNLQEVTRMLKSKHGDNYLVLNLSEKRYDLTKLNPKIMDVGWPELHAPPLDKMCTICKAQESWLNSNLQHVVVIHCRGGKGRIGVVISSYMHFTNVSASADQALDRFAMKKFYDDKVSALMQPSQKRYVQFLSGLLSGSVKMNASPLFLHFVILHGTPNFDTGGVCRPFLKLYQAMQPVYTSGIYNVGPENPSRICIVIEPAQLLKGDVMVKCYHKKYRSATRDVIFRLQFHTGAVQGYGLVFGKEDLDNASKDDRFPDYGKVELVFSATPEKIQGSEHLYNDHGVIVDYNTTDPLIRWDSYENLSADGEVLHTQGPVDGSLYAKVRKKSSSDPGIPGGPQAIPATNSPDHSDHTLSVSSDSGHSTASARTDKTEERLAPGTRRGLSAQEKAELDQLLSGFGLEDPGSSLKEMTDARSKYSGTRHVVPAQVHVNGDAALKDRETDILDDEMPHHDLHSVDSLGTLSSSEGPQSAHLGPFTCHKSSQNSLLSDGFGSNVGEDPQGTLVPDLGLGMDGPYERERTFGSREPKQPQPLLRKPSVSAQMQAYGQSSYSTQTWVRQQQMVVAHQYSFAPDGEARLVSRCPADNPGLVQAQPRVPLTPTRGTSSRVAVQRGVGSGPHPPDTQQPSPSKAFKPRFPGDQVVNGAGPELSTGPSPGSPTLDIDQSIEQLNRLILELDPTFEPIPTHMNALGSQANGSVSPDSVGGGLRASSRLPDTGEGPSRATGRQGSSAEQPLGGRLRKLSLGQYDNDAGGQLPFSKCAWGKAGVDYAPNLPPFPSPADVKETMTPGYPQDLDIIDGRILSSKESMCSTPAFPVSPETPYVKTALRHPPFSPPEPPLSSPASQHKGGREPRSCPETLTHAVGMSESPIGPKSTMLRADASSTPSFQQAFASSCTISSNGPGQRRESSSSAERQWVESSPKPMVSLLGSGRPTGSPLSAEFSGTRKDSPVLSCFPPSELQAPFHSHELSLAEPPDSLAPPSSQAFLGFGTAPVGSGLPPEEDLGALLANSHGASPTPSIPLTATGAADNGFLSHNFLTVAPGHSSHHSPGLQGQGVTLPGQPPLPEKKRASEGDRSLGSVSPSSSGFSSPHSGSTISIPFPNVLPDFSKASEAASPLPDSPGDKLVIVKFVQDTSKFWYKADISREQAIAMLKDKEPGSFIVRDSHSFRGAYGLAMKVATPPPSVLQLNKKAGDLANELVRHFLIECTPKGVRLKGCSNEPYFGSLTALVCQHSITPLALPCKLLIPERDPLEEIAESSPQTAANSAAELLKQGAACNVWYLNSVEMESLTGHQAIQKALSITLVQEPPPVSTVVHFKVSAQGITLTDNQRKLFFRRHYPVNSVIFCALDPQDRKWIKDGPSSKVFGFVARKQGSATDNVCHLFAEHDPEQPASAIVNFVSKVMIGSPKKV
# UniProt Q96HA7: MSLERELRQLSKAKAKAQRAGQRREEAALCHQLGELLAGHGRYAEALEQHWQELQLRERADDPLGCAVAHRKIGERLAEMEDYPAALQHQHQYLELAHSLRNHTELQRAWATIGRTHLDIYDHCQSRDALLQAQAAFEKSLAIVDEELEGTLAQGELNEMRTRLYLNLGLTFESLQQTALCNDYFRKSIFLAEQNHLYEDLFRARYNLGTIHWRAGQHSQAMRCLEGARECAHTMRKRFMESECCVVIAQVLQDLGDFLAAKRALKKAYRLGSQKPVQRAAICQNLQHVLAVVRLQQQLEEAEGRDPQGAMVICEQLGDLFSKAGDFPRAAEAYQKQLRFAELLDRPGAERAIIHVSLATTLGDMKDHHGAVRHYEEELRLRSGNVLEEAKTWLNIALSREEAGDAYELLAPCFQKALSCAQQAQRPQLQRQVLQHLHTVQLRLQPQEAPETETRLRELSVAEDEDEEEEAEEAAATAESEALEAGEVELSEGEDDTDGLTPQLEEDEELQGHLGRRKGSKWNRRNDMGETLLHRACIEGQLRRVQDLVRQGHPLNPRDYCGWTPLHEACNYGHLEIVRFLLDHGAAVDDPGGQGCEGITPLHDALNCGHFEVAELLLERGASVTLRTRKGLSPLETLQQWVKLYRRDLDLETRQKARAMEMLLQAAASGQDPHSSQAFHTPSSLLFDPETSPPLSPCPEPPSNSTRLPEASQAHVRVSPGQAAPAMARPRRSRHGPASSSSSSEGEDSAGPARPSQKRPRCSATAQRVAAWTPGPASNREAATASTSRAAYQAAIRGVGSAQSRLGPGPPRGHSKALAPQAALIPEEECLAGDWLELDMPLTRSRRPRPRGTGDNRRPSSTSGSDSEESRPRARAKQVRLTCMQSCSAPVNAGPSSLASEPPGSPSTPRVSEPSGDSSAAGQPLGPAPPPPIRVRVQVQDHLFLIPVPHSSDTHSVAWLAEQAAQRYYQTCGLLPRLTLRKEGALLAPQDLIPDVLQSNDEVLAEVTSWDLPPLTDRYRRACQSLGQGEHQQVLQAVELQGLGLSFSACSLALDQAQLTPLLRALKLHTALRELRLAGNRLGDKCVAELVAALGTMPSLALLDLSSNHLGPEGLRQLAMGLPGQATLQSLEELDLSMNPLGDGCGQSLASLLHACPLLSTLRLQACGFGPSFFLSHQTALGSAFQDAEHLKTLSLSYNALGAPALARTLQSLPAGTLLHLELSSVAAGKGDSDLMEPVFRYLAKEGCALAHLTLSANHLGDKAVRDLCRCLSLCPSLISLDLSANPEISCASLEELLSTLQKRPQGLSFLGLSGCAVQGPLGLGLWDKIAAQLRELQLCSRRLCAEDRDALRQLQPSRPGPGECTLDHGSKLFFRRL
# UniProt Q9Y490: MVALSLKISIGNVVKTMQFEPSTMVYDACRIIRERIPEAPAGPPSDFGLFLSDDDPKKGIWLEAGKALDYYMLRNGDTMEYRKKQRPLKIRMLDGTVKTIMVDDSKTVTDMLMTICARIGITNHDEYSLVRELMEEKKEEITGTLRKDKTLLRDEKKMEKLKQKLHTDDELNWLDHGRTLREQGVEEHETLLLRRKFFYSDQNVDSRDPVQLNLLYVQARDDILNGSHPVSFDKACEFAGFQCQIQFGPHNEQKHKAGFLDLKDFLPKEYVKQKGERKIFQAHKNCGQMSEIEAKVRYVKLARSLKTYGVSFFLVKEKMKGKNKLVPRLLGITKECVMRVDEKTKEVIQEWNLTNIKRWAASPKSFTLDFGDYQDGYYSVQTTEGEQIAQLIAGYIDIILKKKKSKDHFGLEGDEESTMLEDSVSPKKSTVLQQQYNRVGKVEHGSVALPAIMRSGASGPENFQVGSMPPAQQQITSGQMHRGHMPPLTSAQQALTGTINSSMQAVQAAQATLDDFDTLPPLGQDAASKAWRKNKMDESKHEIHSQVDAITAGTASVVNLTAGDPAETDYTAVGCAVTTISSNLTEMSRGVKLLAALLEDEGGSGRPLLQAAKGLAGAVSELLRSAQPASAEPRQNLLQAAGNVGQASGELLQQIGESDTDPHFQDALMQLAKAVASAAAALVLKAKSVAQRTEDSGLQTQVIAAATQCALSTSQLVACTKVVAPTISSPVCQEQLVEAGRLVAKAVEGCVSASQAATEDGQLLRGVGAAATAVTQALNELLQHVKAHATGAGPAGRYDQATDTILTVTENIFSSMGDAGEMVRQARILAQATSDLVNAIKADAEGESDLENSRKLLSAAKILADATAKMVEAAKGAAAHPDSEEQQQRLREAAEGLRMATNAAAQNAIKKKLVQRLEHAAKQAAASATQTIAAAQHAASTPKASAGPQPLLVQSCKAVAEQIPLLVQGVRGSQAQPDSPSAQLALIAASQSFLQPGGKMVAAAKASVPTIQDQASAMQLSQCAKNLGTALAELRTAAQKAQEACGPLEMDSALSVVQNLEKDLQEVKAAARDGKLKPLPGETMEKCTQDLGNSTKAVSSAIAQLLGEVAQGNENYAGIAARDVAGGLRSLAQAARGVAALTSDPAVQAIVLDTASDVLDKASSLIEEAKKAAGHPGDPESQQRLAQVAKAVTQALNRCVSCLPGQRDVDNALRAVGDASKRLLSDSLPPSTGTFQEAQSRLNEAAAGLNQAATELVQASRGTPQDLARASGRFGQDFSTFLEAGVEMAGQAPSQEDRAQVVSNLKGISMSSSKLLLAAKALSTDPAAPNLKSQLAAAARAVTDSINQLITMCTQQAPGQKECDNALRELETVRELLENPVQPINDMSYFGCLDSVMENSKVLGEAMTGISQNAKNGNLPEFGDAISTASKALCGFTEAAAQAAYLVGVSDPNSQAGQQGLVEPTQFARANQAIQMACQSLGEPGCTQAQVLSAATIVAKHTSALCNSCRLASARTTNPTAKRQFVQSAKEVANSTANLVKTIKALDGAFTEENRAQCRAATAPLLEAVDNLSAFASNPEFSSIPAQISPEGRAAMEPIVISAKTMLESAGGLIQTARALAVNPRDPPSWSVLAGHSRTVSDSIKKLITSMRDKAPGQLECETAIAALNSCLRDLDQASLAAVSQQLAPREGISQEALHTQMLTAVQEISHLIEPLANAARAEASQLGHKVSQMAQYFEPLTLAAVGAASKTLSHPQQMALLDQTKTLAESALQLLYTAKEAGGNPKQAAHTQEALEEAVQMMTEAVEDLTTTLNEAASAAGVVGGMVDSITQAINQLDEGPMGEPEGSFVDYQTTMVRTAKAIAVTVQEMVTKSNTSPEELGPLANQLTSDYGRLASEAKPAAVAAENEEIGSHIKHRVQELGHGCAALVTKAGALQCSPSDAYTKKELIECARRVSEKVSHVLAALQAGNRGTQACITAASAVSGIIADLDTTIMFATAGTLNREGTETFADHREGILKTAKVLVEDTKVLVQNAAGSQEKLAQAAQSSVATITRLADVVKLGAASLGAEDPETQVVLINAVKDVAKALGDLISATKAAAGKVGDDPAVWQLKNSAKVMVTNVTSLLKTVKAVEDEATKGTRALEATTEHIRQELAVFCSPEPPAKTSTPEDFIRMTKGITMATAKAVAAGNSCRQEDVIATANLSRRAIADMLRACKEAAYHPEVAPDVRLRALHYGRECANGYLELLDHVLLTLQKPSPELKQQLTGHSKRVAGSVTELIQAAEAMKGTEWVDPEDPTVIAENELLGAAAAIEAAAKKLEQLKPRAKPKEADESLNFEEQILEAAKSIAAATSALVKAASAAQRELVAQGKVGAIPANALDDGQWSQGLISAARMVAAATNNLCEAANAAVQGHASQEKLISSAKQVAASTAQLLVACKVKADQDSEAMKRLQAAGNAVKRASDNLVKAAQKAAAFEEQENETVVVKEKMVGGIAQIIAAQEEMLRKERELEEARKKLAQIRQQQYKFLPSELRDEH
# UniProt Q9H813: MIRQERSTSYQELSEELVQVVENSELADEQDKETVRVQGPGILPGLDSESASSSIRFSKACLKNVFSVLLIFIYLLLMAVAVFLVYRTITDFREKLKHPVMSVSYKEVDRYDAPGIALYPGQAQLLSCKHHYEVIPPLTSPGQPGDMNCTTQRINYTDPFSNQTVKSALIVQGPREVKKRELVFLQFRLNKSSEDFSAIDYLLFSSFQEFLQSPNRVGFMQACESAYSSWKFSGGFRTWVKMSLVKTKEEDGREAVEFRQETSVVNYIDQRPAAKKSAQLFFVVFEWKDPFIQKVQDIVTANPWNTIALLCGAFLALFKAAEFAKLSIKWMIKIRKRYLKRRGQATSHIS
# UniProt O95985: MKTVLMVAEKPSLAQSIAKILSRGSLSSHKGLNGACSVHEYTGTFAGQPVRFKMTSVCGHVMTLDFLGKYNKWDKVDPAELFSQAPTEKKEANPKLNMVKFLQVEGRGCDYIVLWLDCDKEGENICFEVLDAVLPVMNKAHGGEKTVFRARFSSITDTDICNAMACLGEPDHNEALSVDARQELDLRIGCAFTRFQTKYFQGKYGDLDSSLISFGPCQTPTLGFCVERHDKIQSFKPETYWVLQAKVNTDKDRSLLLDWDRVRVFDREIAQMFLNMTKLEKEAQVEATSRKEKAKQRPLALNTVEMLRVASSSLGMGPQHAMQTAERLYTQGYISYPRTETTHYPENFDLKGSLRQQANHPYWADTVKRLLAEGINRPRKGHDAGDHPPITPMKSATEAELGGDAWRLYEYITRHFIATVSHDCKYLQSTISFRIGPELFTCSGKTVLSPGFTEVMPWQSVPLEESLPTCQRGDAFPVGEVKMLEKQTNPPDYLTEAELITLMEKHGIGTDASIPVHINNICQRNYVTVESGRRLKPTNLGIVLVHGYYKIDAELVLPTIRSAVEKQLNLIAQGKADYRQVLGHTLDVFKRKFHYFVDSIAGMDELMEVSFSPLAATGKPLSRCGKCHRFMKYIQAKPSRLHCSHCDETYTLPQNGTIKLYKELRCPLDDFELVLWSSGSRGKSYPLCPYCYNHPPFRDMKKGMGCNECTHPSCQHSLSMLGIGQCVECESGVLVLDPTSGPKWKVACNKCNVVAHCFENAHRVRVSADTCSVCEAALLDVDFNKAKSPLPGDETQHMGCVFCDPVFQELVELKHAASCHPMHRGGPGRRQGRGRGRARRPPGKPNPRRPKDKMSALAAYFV
# This is one part of the list.
# Compound: Cc1cc(ccc1-c1ccccc1)C(=O)N1CCCN(CC1)C(=O)CCl [compound 10]
# Assay: probe-labelled cysteine peptide fold change vs DMSO (competition) (log2 fold change); higher = less target engagement (more negative = stronger competition)
# Conditions: THP-1, incubation time: 4 h
# 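Note: competitive profiling in live THP-1 cells: cysteine peptides tagged with an iodoacetamide desthiobiotin (IA-DTB) probe, intensity after compound treatment relative to DMSO-treated cells.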
Target,probe-labelled cysteine peptide fold change (10 µM),probe-labelled cysteine peptide fold change (50 µM)
TNFAIP3_P21580_158_SQEFVETGLCYDTR (UniProt P21580),-0.274,0.0322
TMEM209_Q96SK2_455_KWDTDLPTDSAIIMHVFCTYLDSR (UniProt Q96SK2),0.384,0.256
TNFAIP2_Q03169_429_ANVIANINNCLSFR (UniProt Q03169),-0.0434,0.184
TMEM214_Q6NUQ4_392_ELLSSLTECLTVDPLSASVWR (UniProt Q6NUQ4),0.182,0.146
TMEM94_Q12767_984_GIHQVRPHLQNIDNVPLLVPLFTDCTPETMCEMIK (UniProt Q12767),0.0807,-0.422
TNS3_Q68CZ2_227_ICIVIEPAQLLK (UniProt Q68CZ2),0.128,-0.0639
TOP1_P11387_505_AGNEKEEGETADTVGCCSLR (UniProt P11387),-0.0231,-0.756
TMCO4_Q5TGY1_423_DCQGIIEDVILLGAPVEGEAK (UniProt Q5TGY1),-0.702,-0.104
TONSL_Q96HA7_1345_LCAEDRDALR (UniProt Q96HA7),-0.18,-0.183
TM9SF2_Q99805_56_KSDECK (UniProt Q99805),-0.278,-0.242
TNRC18_O15417_2602_NCSAASSR (UniProt O15417),-0.201,-0.322
TOMM70_O94826_317_IISECSK (UniProt O94826),0.0724,0.114
TOMM34_Q15785_250_DCTEALK (UniProt Q15785),0.155,-0.128
TMEM131L_A2VDJ0_352_IASFTCK (UniProt A2VDJ0),-0.15,0.0594
TMEM9B_Q9NQ34_68_DCDCLHVVEPMPVRGPDVEAYCLR (UniProt Q9NQ34),0.0635,0.101
TOPBP1_Q92547_60_SLYICDPFSGVVFDHLK (UniProt Q92547),0.344,0.398
TOLLIP_Q9H0E2_106_VIHCTVPPGVDSFYLEIFDER (UniProt Q9H0E2),0.0754,-0.0973
TOR3A_Q9H497_227_ETQQLCHQTLFIFDEAEK (UniProt Q9H497),0.174,0.408
TNPO1_Q92973_142+153_LCSLLDSEDYNTCEGAFGALQK (UniProt Q92973),-0.344,-0.0836
TOP2A_P11388_1008_LQTSLTCNSMVLFDHVGCLK (UniProt P11388),-0.204,-0.0237
TOR2A_Q5JU69_271_HCVLNELAQLGLEPR (UniProt Q5JU69),0.238,0.0467
TP53BP1_Q12888_1040_TMSVLSCICEAR (UniProt Q12888),-0.23,-0.534
TMCO6_Q96DC7_14_LRPTVCGVEELRR (UniProt Q96DC7),-0.0775,-0.449

Target,probe-labelled cysteine peptide fold change (10 µM),probe-labelled cysteine peptide fold change (50 µM)
TNS3_Q68CZ2_25_IIAVSFPAGCSEESYLHNLQEVTR (UniProt Q68CZ2),-0.0114,0.115
TOP2A_P11388_1145_KDELCR (UniProt P11388),-0.202,0.104
TMX2_Q9Y320_186_YNCTGLNFGK (UniProt Q9Y320),-0.00414,-0.0108
TMEM94_Q12767_674_LSCVTK (UniProt Q12767),-0.112,-0.725
TNRC18_O15417_2921_CLVVGLEQYEQMLK (UniProt O15417),-0.133,0.197
TNKS1BP1_Q9C0C2_136_CAAPGGVR (UniProt Q9C0C2),-0.165,-0.275
TOE1_Q96GM8_80_SLLNQCIEER (UniProt Q96GM8),-0.52,-2.28
TLN2_Q9Y4G6_1204_AVSHSLNNCVNCLPGQK (UniProt Q9Y4G6),0.0961,-0.0817
TONSL_Q96HA7_1345_RLCAEDR (UniProt Q96HA7),-0.014,-0.108
TOR2A_Q5JU69_43_CTLGAFCECDFRPDLPGLECDLAQHLAGQHLAK (UniProt Q5JU69),0.0995,0.358
TONSL_Q96HA7_314_LQQQLEEAEGRDPQGAMVICEQLGDLFSK (UniProt Q96HA7),-0.0344,-0.187
TLN1_Q9Y490_732_VVAPTISSPVCQEQLVEAGR (UniProt Q9Y490),0.0719,0.17
TMX1_Q9H3N1_106_FIITALPTIYHCK (UniProt Q9H3N1),-0.104,-0.168
TMEM104_Q8NE00_455_DTQLAFGCGVSNK (UniProt Q8NE00),-0.127,-0.346
TOE1_Q96GM8_371_QVCGDSIKPEETEQEVAADETR (UniProt Q96GM8),0.000201,-0.352
TOP2A_P11388_733_VLFTCFK (UniProt P11388),0.102,0.328
TMEM126B_Q8IUX1_151_SSLIGIVCGVFYPSSLAFTK (UniProt Q8IUX1),-0.506,0.449
TOX4_O94842_577_SGCENPPIVSK (UniProt O94842),-0.013,-0.064
TOR4A_Q9NXH8_62_LLQPGGGPDVGTGAPRPGCSPR (UniProt Q9NXH8),-0.0668,0.07
TMEM106B_Q9NUM4_253_YQYVDCGR (UniProt Q9NUM4),-0.297,0.0672
TMEM62_Q0P6H9_325_SLLYSCGEHEPLER (UniProt Q0P6H9),0.0969,-0.0294
TMPO_P42166_330_DIVENICGR (UniProt P42166),-0.136,-0.0688
TMEM206_Q9H813_128_EVDRYDAPGIALYPGQAQLLSCK (UniProt Q9H813),-0.272,-0.242

Target,probe-labelled cysteine peptide fold change (10 µM),probe-labelled cysteine peptide fold change (50 µM)
TPI1_P60174_104_IAVAAQNCYK (UniProt P60174),-0.156,-0.00764
TOR2A_Q5JU69_54_CTLGAFCECDFRPDLPGLECDLAQHLAGQHLAK (UniProt Q5JU69),-0.184,0.309
TOR1AIP1_Q5JTV8_424_CLSEQIADAYSSFR (UniProt Q5JTV8),0.193,0.432
TMEM173_Q86WV6_148_GLAPAEISAVCEK (UniProt Q86WV6),-0.241,0.0295
TNRC18_O15417_2204_GNRPHIYCLEQLLQEAIIDVRPASTR (UniProt O15417),0.0315,-0.0731
TOM1_O60784_77_NFHEVMLALTVLETCVK (UniProt O60784),0.166,0.0102
TOR1AIP2_Q8NFQ8_310_CLSHHVADAYTSSQK (UniProt Q8NFQ8),0.118,0.159
TNPO3_Q9Y5L0_634_HTNPIVENGQTHPCQK (UniProt Q9Y5L0),0.0283,-0.115
TM9SF2_Q99805_194_DACVISSDFHER (UniProt Q99805),0.0577,0.0857
TOP3B_O95985_126_EGENICFEVLDAVLPVMNK (UniProt O95985),0.0623,0.0823
TOR3A_Q9H497_385_EEQLFSSQGCK (UniProt Q9H497),-0.000787,-0.00453
TMED4_Q7Z7H5_41_CFIEEIPDETMVIGNYR (UniProt Q7Z7H5),-0.11,0.496
TMEM39A_Q9NV64_276_NEVECLK (UniProt Q9NV64),0.148,0.339
TNPO2_O14787_93_QECLNNIGDASSLIR (UniProt O14787),0.22,0.135
TOP2A_P11388_997_LQTSLTCNSMVLFDHVGCLK (UniProt P11388),-0.121,-0.0857
TOP2A_P11388_216_AGEMELKPFNGEDYTCITFQPDLSK (UniProt P11388),0.0987,-0.0773
TLN1_Q9Y490_286_NCGQMSEIEAK (UniProt Q9Y490),-0.304,-0.146
TM7SF3_Q9NS93_180_GVDPPPCDAGTDQDSR (UniProt Q9NS93),-0.0994,0.0178
TM9SF3_Q9HD45_66_YFSLPFCVGSK (UniProt Q9HD45),-0.139,-0.138
TOP3B_O95985_36_GLNGACSVHEYTGTFAGQPVR (UniProt O95985),-0.0161,0.0165
TNPO3_Q9Y5L0_204_CLGSWFNLGVLDSNFMANNK (UniProt Q9Y5L0),-0.18,0.526
TMEM120B_A0PK00_8_CEREWHELEGEFQELQETHR (UniProt A0PK00),-0.0819,0.275
